# Some of the results follow.
# Chains of the proteins cited; added tags and fusions are not shown. Lines headed by an entry give the natural chain unless they say otherwise; changes in a name come on top.
# UniProt Q8WVX9: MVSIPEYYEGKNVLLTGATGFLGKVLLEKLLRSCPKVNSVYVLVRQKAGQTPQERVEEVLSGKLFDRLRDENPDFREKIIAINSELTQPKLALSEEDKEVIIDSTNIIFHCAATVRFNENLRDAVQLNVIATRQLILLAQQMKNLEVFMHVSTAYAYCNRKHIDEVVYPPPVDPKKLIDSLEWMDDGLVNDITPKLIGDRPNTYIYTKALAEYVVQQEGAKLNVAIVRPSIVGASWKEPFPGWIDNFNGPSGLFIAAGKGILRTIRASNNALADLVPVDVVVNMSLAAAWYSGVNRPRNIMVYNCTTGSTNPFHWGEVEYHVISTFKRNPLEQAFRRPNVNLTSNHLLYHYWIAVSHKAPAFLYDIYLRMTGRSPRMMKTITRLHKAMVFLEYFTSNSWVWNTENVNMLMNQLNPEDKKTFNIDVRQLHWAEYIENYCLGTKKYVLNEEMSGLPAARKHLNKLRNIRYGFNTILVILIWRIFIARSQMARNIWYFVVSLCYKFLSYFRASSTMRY
# UniProt Q96HJ9: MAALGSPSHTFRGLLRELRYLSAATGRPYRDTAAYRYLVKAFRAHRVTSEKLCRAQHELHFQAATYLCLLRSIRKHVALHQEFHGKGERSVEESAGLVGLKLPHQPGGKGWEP
# UniProt Q9UBU6: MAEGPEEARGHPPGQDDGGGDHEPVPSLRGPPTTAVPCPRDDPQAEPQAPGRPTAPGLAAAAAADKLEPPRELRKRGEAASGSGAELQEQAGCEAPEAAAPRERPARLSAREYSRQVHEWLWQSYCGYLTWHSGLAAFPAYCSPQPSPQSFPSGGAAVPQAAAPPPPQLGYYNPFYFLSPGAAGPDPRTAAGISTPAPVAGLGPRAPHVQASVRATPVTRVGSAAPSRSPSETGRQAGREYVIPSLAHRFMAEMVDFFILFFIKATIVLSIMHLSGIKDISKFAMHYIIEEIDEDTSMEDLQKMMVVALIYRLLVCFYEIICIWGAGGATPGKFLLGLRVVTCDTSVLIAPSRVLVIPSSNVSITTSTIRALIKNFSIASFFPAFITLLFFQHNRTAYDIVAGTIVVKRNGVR
# UniProt Q92520: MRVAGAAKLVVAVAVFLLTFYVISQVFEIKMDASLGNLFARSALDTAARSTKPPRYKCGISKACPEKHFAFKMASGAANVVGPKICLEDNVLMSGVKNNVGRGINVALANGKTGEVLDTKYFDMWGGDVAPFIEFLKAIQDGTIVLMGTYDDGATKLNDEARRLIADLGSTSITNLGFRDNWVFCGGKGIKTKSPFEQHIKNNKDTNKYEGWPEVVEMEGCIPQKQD
# UniProt Q14315, whole entry, looked up: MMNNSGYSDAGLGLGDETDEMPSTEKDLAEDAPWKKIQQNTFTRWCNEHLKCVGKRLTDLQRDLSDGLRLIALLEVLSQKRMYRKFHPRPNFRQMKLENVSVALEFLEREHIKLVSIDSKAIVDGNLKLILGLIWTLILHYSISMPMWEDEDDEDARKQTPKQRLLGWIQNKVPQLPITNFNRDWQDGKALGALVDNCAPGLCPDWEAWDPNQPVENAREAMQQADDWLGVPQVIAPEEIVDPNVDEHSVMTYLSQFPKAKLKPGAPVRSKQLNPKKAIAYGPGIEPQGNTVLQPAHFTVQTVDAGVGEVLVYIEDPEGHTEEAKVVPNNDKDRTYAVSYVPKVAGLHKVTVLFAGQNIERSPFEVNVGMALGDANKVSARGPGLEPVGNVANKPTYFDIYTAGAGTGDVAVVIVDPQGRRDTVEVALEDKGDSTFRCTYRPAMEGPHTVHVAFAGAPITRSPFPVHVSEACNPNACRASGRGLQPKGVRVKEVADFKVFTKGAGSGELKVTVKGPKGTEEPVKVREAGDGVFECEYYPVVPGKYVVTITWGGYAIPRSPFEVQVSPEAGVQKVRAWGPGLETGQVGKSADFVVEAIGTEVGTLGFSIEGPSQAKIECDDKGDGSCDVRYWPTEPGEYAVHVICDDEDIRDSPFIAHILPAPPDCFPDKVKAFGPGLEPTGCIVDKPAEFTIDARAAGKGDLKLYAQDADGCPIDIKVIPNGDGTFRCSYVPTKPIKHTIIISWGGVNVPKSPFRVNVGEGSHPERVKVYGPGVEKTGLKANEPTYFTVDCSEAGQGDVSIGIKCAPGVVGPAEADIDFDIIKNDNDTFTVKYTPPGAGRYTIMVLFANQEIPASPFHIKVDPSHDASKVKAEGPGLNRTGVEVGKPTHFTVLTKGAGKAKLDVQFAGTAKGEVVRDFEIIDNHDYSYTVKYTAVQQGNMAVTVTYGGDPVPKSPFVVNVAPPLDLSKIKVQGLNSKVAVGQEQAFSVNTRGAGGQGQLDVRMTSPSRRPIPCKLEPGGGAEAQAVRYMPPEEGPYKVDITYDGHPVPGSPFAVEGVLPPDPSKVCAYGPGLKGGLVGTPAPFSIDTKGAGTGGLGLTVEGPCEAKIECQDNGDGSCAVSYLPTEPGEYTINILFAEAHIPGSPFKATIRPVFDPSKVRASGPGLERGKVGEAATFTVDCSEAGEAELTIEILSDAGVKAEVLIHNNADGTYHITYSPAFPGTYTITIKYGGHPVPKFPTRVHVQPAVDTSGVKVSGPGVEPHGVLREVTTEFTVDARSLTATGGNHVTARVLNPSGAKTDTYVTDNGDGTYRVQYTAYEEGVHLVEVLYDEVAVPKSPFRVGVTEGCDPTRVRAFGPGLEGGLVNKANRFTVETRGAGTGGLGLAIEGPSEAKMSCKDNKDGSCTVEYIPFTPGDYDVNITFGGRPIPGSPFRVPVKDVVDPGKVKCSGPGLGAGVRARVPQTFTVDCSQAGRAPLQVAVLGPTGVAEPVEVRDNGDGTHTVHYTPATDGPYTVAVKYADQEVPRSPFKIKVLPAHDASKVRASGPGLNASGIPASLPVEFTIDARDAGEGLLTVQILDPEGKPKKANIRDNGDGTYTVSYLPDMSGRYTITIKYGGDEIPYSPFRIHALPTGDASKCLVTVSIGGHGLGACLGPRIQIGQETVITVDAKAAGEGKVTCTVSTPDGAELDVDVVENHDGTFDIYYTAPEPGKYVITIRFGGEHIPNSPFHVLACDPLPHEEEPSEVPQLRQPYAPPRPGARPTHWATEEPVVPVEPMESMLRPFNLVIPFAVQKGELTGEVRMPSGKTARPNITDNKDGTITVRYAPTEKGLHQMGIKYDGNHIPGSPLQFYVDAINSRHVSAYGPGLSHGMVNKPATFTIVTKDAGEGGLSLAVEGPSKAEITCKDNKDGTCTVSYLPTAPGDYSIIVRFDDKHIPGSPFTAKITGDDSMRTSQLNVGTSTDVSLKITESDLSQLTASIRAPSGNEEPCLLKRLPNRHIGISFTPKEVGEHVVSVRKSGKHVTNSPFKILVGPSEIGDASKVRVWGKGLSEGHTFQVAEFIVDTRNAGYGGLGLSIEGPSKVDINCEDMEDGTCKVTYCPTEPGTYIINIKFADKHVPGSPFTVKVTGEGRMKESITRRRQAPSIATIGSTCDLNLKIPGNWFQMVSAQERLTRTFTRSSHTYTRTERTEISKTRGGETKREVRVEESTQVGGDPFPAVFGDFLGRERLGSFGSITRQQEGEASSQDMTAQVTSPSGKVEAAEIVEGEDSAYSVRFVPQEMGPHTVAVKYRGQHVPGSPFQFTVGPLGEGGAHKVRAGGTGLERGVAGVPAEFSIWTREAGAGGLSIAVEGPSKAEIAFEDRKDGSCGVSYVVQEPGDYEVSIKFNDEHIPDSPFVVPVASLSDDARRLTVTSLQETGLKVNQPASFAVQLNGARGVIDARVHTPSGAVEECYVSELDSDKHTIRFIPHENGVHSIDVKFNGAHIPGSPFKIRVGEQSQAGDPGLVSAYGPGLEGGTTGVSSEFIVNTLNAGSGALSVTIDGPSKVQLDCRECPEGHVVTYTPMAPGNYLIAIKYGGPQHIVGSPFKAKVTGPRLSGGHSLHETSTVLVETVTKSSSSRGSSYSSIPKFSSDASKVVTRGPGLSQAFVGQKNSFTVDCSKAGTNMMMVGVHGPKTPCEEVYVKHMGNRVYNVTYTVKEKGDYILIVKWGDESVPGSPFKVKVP
# UniProt Q9Y421: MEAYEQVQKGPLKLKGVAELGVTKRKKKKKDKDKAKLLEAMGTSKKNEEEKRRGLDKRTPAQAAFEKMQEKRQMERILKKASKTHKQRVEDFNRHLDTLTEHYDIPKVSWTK
# UniProt Q9NRD1: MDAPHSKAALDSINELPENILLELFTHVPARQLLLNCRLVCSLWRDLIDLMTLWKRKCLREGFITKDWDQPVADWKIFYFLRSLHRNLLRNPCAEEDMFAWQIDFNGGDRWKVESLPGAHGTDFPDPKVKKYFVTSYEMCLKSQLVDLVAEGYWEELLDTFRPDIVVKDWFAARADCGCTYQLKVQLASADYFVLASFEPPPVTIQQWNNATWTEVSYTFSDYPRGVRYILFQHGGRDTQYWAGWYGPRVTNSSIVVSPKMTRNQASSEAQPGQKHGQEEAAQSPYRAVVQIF
# UniProt P23142: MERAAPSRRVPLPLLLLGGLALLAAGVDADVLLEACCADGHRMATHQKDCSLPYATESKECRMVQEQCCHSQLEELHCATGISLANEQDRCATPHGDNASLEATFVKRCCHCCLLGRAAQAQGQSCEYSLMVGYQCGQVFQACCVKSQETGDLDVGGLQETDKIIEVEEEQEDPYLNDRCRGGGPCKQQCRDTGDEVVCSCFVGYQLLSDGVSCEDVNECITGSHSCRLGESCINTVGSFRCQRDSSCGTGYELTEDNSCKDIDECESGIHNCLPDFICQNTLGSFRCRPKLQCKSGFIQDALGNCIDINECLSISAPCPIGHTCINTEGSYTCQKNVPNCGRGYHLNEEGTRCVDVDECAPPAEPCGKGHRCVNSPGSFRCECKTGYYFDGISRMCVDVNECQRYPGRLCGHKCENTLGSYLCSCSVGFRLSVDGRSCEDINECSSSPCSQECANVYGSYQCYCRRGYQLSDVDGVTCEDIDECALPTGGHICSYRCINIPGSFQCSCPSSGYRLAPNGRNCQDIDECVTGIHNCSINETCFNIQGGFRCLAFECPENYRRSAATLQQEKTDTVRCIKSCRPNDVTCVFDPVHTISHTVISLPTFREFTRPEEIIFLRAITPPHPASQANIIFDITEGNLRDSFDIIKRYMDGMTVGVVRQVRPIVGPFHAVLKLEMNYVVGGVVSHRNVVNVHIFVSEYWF
# UniProt Q52LJ0: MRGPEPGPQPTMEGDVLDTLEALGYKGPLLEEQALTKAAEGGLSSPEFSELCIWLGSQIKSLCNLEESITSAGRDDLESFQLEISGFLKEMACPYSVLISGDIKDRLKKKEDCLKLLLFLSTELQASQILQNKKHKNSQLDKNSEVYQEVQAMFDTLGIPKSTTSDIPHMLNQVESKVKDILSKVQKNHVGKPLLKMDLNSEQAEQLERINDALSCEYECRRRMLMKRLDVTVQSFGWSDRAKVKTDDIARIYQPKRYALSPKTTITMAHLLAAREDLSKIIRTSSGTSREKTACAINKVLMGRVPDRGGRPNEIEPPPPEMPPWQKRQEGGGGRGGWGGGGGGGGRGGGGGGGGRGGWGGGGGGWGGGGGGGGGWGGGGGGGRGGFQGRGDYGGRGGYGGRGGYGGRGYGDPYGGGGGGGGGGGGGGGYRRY
# UniProt Q6P3S6: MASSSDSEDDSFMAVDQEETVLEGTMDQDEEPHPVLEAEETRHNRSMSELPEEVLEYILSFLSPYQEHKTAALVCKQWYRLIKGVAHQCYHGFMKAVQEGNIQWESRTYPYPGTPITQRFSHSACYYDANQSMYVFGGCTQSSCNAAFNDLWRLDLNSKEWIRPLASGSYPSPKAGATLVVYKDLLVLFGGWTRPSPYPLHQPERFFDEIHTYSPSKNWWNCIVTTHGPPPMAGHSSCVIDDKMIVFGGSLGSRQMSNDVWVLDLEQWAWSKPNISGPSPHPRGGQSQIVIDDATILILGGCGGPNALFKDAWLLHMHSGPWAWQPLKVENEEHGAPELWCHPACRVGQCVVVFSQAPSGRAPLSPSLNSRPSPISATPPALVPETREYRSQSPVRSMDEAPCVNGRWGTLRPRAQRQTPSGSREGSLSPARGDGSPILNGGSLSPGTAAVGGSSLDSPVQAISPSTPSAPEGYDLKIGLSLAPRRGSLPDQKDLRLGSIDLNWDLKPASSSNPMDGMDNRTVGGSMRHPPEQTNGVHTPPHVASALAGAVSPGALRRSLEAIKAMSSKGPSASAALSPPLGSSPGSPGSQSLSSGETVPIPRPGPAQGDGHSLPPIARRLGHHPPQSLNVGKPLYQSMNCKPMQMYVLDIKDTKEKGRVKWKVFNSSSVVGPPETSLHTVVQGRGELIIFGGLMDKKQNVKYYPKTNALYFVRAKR
# UniProt Q9UIM3: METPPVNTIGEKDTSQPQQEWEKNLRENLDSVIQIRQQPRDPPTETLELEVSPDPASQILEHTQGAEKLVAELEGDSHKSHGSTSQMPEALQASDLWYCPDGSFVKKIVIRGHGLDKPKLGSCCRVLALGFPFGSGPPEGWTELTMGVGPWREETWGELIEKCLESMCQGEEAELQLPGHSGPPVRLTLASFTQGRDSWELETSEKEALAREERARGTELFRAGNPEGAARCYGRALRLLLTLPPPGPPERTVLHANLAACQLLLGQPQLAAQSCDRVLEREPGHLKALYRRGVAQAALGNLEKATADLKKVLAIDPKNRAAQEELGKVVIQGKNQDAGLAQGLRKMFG
# Assays:
# Assay in all cases: log2 fold change, soluble protein after heating vs DMSO (PISA); higher = thermal stabilisation; K562 cells, 10 uM, 30 min; active = over 0.2 and 3.5 SD of the protein, either way, in both replicates (recomputed)
# erlotinib = compound: C#Cc1cccc(Nc2ncnc3cc(OCCOC)c(OCCOC)cc23)c1 [erlotinib]
# How it was run: (§1)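 K562 cells at 2×10^6 cells/mL were exposed to 10 μM compound for 30 min, then aliquots were heated for 3 min across 48°C-58°C, pooled, and extracted in PBS containing 0.5% NP-40 at 4°C. The supernatant after 21,000xg for 90 min was taken as soluble protein and measured by TMTpro 16plex LC-MS/MS with channel sums equalised. Thermal stability is reported relative to control samples, with values from duplicates. Fold changes are given on a log2 scale.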
# [1] = compound: C/C(=N\NC(=O)C1=CC(=CC=C1)S(=O)(=O)N2CCOCC2)/C3=C(C=CC(=C3)Cl)O
# How it was run: as §1
# [2] = compound: C1=CC(=C(C=C1Cl)C2=NC3=NC=CN=C3C(=N2)NC4=CC=NC=C4)F
# How it was run: as §1
# [3] = compound: C1=CC(=CC=C1C2=NC3=C(N2)C=C(C=C3)C(=O)N)OC4=CC=C(C=C4)Cl
# How it was run: as §1
# [4] = compound: C1=CC2=C(C=CC(=C2)/C=C\3/C(=O)NC(=NCC4=CC=CS4)S3)N=C1
# How it was run: as §1
# [5] = compound: C1=CC2=NC=CN=C2C=C1/C=C/3\C(=O)NC(=O)S3
# How it was run: as §1
# [6] = compound: C1=CC=C(C=C1)C2=NC(=C(N2)C3=CC=NC=C3)C4=CC(=C(C=C4)Cl)O
# How it was run: as §1
# [7] = compound: C1=CC=C2C(=C1)C3=NNC4=CC=CC(=C43)C2=O
# How it was run: as §1
# [8] = compound: C1CCN(C1)C(=O)NC2=CC=CC(=C2)NC3=NC=C(C(=N3)NCCC4=CN=CN4)Br
# How it was run: as §1
# [9] = compound: C1CN(CCC1(CC2=CC=C(C=C2)Cl)N)C3=NC=NC4=C3C=CN4
# How it was run: as §1
Target,log2 fold change (erlotinib),log2 fold change [1],log2 fold change [2],log2 fold change [3],log2 fold change [4],log2 fold change [5],log2 fold change [6],log2 fold change [7],log2 fold change [8],log2 fold change [9]
FBLL1 (UniProt A6NHQ2),inactive: -0.083,inactive: -0.051,inactive: -0.132,inactive: -0.069,inactive: -0.207,inactive: 0.056,inactive: -0.139,inactive: -0.047,inactive: -0.116,inactive: -0.058
FBXW9 (UniProt Q5XUX1),inactive: 0.024,inactive: 0.069,inactive: 0.017,inactive: 0.006,inactive: -0.052,inactive: -0.019,inactive: -0.015,inactive: 0.012,inactive: -0.094,inactive: 0.08
FAM210B (UniProt Q96KR6),inactive: 0.059,inactive: -0.008,inactive: -0.01,inactive: 0.033,inactive: -0.024,inactive: 0.049,inactive: 0.022,inactive: 0.034,–,–
FHOD1 (UniProt Q9Y613),inactive: -0.002,inactive: -0.259,inactive: -0.337,inactive: -0.059,inactive: 0.059,inactive: 0.146,inactive: -0.034,inactive: -0.007,–,–
FAR1 (UniProt Q8WVX9),inactive: 0.059,inactive: 0.1,inactive: 0.057,inactive: 0.004,inactive: -0.014,inactive: 0.065,inactive: -0.073,inactive: 0.006,inactive: -0.016,inactive: 0.056
FMC1 (UniProt Q96HJ9),inactive: 0,inactive: 0.072,inactive: 0.083,inactive: 0.004,inactive: 0.108,inactive: -0.063,active: 0.319,inactive: 0.001,inactive: -0.026,inactive: -0.042
FASTKD1 (UniProt Q53R41),inactive: 0.207,inactive: 0.219,inactive: 0.142,inactive: -0.051,inactive: -0.072,inactive: -0.033,inactive: 0.281,inactive: 0.093,inactive: -0.108,inactive: -0.014
FBXW2 (UniProt Q9UKT8),inactive: -0.012,inactive: -0.059,inactive: 0.091,inactive: 0.269,inactive: 0.063,inactive: -0.129,inactive: -0.184,inactive: 0.011,inactive: 0.061,inactive: 0.136
FAM8A1 (UniProt Q9UBU6),inactive: -0.024,inactive: -0.036,inactive: 0.012,inactive: -0.065,inactive: 0.031,inactive: -0.04,inactive: 0.01,inactive: 0.015,inactive: -0.083,inactive: 0.018
FANCD2 isoform 1 (UniProt Q9BXW9),inactive: 0.077,inactive: 0.075,inactive: -0.003,inactive: 0.012,inactive: 0.145,inactive: 0.02,inactive: 0,inactive: -0.012,inactive: -0.008,inactive: 0.02
FAM83D (UniProt Q9H4H8),inactive: 0.035,inactive: 0.027,inactive: -0.124,inactive: -0.015,inactive: -0.016,inactive: 0.02,inactive: 0.086,inactive: 0.059,inactive: -0.071,inactive: -0.062
FAM3C (UniProt Q92520),inactive: 0.023,inactive: -0.009,inactive: -0.008,inactive: 0.002,inactive: -0.028,inactive: 0.031,inactive: -0.06,inactive: 0.012,inactive: 0.061,inactive: 0.032
FLNC (UniProt Q14315),inactive: -0.015,inactive: 0.028,inactive: 0.005,inactive: -0.016,inactive: 0.012,inactive: 0.036,inactive: 0.014,inactive: -0.01,inactive: 0.012,inactive: -0.034
FANCI (UniProt Q9NVI1),inactive: 0.083,inactive: 0.026,inactive: 0.056,inactive: 0.062,inactive: 0.142,inactive: 0.008,inactive: 0.053,inactive: -0.019,inactive: -0.028,inactive: -0.006
FAM234A (UniProt Q9H0X4),inactive: 0.044,inactive: -0.036,inactive: -0.111,inactive: 0.018,inactive: 0.007,inactive: 0.037,inactive: -0.01,inactive: -0.012,inactive: 0.001,inactive: 0.055
FAM32A (UniProt Q9Y421),inactive: 0.222,inactive: 0.056,inactive: -0.163,inactive: 0.007,inactive: -0.018,inactive: 0.009,inactive: -0.079,inactive: -0.011,inactive: -0.065,inactive: -0.075
FBXO6 (UniProt Q9NRD1),inactive: -0.069,inactive: 0.046,inactive: 0.075,inactive: 0.007,inactive: 0.048,inactive: 0.007,inactive: 0.021,inactive: 0.002,inactive: -0.031,inactive: 0
FBXO4 (UniProt Q9UKT5),inactive: 0.061,inactive: 0.074,inactive: 0.102,inactive: 0.035,inactive: 0.106,inactive: 0.001,inactive: 0.023,inactive: 0.007,inactive: -0.014,inactive: -0.021
FGF2 (UniProt P09038),inactive: 0.003,inactive: -0.011,inactive: -0.015,inactive: 0.027,inactive: 0.024,inactive: 0.05,inactive: -0.001,inactive: -0.042,inactive: -0.059,inactive: 0.085
FBLN1 (UniProt P23142),inactive: -0.118,inactive: -0.156,inactive: 0.007,inactive: 0.138,inactive: 0.075,inactive: 0.006,inactive: -0.025,inactive: -0.27,inactive: 0.155,inactive: 0.319
FAM98B (UniProt Q52LJ0),inactive: 0.037,inactive: 0.011,inactive: -0.009,inactive: 0.019,inactive: -0.042,inactive: 0.038,inactive: 0.021,inactive: -0.067,inactive: 0.018,inactive: -0.136
FGGY isoform 3 (UniProt Q96C11),inactive: 0.011,inactive: -0.13,inactive: 0.039,inactive: 0.026,inactive: 0.193,inactive: 0.031,inactive: -0.039,inactive: -0.169,inactive: 0.101,inactive: 0.119
FDFT1 (UniProt P37268),inactive: 0.126,inactive: -0.026,inactive: -0.01,inactive: 0.037,inactive: 0.209,inactive: 0,inactive: 0.011,inactive: 0.144,inactive: -0.039,inactive: 0.059
FLOT1 (UniProt O75955),inactive: -0.083,inactive: -0.024,inactive: -0.215,inactive: -0.012,inactive: 0,inactive: 0.023,inactive: 0.019,inactive: 0.131,inactive: -0.035,inactive: -0.062
FKBP14 (UniProt Q9NWM8),inactive: -0.266,inactive: -0.058,inactive: -0.045,inactive: -0.083,inactive: 0.032,inactive: 0.044,inactive: -0.002,inactive: 0,inactive: -0.01,inactive: 0.041
FASTKD2 (UniProt Q9NYY8),inactive: 0.006,inactive: 0.053,inactive: -0.01,inactive: 0.022,inactive: 0.022,inactive: 0.056,inactive: 0.04,inactive: -0.01,inactive: -0.025,inactive: 0.028
FGFR1OP (UniProt O95684),inactive: 0.002,inactive: 0.017,inactive: 0.003,inactive: 0.056,inactive: 0.016,inactive: 0.061,inactive: -0.018,inactive: -0.039,inactive: -0.01,inactive: -0.067
FBXO42 (UniProt Q6P3S6),inactive: 0.026,inactive: -0.006,inactive: -0.002,inactive: 0.025,inactive: 0.025,inactive: 0.055,inactive: 0.051,inactive: -0.006,inactive: -0.05,inactive: -0.024
FKBPL (UniProt Q9UIM3),inactive: -0.015,inactive: 0.014,inactive: 0.008,inactive: 0.025,inactive: 0.015,inactive: 0.013,inactive: 0.018,inactive: -0.006,inactive: -0.035,inactive: 0.015
FKBP2 (UniProt P26885),inactive: -0.041,inactive: -0.061,inactive: -0.045,inactive: -0.015,inactive: 0.092,inactive: -0.028,inactive: 0.015,inactive: -0.023,inactive: -0.033,inactive: 0.027

# Random excerpt: 2 entries already listed, in no set order.
Target,log2 fold change (erlotinib),log2 fold change [1],log2 fold change [2],log2 fold change [3],log2 fold change [4],log2 fold change [5],log2 fold change [6],log2 fold change [7],log2 fold change [8],log2 fold change [9]
FAM210B (UniProt Q96KR6),inactive: 0.059,inactive: -0.008,inactive: -0.01,inactive: 0.033,inactive: -0.024,inactive: 0.049,inactive: 0.022,inactive: 0.034,–,–
FAM98B (UniProt Q52LJ0),inactive: 0.037,inactive: 0.011,inactive: -0.009,inactive: 0.019,inactive: -0.042,inactive: 0.038,inactive: 0.021,inactive: -0.067,inactive: 0.018,inactive: -0.136

# Reference: the supplement of paper PMC10849652
